# Experimental data reported in PubChem BioAssay AID493014 (National Center for Advancing Translational Sciences (NCATS), 2011).
# The other results are listed elsewhere or left out. Shown are side measurements of this screen, not its main read-out; they come without a call. Compounds called inactive in the main read-out are mostly missing here. Words in brackets tell the shape of the fitted curve; partial curves, single points and poor fits give uncertain potencies.
# Experiment: qHTS Assay to Find Inhibitors of Chronic Active B-Cell Receptor Signaling
# Conditions: ABC-DLBCL IkBa-CBG/CBR reporter, luminescence ratio (green luciferase fused to IkBa over red control in TMD8 lymphoma cells), 4 h
# How it was run: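 TMD8 human ABC-DLBCL cells with doxycycline-inducible IκBα–green luciferase fusion and unfused red luciferase, in 0.5% FBS medium; compounds up to 46 uM, 4 h at 37C. Green/red luminescence ratio, filter-overlap corrected, fitted to concentration-response curves.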
# [1] = measured here: CBR red luminescence, cell number
# [2] = measured here: IkBa-CBG green luminescence
Compound,AC50 [1],AC50 [2]
CC[C@H](C)[C@H](NC(N)=O)C(=O)Nc1ccccc1F,"17.8 µM [falling, single point]",
CCC1(C)Cc2c(sc3nnn(CC(=O)Nc4ccc(Cl)cc4)c(=O)c23)CO1 (stereo unspecified),"7.08 µM [falling, full curve]",
CCCCN(C(=O)CSc1nnc2ccccn12)c1c(N)n(Cc2ccccc2)c(=O)[nH]c1=O,"4.11 µM [rising, partial curve, poor fit]",
Cc1cc(NN)nc(NS(=O)(=O)c2ccc(Cl)cc2)n1,"17.8 µM [falling, single point]",
Cc1cc(C)n(NC(=S)NC2CCCC2)c(=O)c1C#N,"0.0891 µM [rising, full curve, poor fit]",
Cc1ccccc1Nc1nc(-c2sc(NC(=O)c3ccccc3)nc2C)cs1,"11.2 µM [falling, partial curve, poor fit]",
COc1ccc(CNc2cc(C)ccc2C)c(OC)c1OC,"29.1 µM [rising, single point]",
O=C(NNC(=O)c1ccccc1[N+](=O)[O-])Nc1ccccc1C(F)(F)F,"0.562 µM [falling, full curve]",
Cc1cc(=O)[nH]c2nnc(SCc3c(F)cccc3Cl)n12,"1.58 µM [rising, partial curve, poor fit]",
COc1cc(/C=N\NC(=O)c2ccc(C)nc2)ccc1OC(=O)c1ccc2c(c1)OCO2,"6.31 µM [falling, single point]",
CC1CCCCC1NC(=O)C1CCN(S(=O)(=O)c2cccc3nsnc23)CC1 (stereo unspecified),"4.61 µM [rising, partial curve, poor fit]",
CC(O)CNCCCOc1cccc(Oc2ccccc2)c1 (stereo unspecified),"11.2 µM [falling, single point]",
Cc1occc1C(=O)N/N=C/c1cccc2ccccc12,"15.8 µM [falling, single point]",
CCOc1ccc(/C=C2/C(=O)N(c3ccc(OC)cc3)C(=S)N2CC(=O)OC)cc1OCC,"18.4 µM [rising, partial curve, poor fit]",
CC(=O)Nc1cccc(C(=O)OC(C)C(=O)Nc2ccc(S(=O)(=O)N3CCCC3)cc2)c1 (stereo unspecified),"23.1 µM [rising, partial curve, poor fit]",
C=CCNC(=O)c1onc(CSc2cccc(Cl)c2)c1C(=O)O,"22.4 µM [falling, partial curve]",
CCOC(=O)/C=C/[C@H]1CCc2cccc(C)c2O1,"29.1 µM [rising, single point]",
Cc1sc(NC(=O)c2cccc(N3C(=O)CCC3=O)c2)nc1-c1ccccc1,"25.9 µM [falling, single point]",
Cc1ccccc1NS(=O)(=O)c1ccc(C(=O)NNC(=O)c2ccccc2O)cc1,"23.1 µM [falling, single point]",
COc1ccc(S(=O)(=O)N2CCN(Cc3ccc4c(c3)OCO4)CC2)cc1C,"1 µM [falling, full curve, poor fit]",
NC(=O)c1ccc(Sc2nnc(-c3cccs3)n2CC2CCCO2)c([N+](=O)[O-])c1 (stereo unspecified),"18.4 µM [falling, partial curve, poor fit]",
CCN(C(=O)c1ccc(Cl)c([N+](=O)[O-])c1)c1ccccc1,"6.31 µM [rising, single point]",

Compound,AC50 [1],AC50 [2]
O=C(c1ccc2ncsc2c1)N1CCCCC1,"35.5 µM [falling, partial curve, poor fit]",
COc1nc(Nc2ccc(OC)c(Cl)c2)nc(OC)n1,"32.6 µM [falling, single point]",
COC(=O)c1c(-c2ccc(OC)cc2)sc2cc(OC)c(OC)cc12,"11.6 µM [rising, partial curve, poor fit]",
Fc1ccccc1NC(=S)NCc1ccc2c(c1)OCO2,"29.1 µM [rising, single point]",
O=S(=O)(NCCc1ccc(Cl)cc1)c1cccs1,"17.8 µM [falling, partial curve, poor fit]",
O=C(CSc1nc2ccccc2c(=O)n1-c1ccccc1Cl)Nc1cccc(S(=O)(=O)N2CCOCC2)c1,"1.84 µM [rising, full curve]",
O=C1C=C(Nc2ccc(O)cc2)CC(c2ccco2)C1 (stereo unspecified),"9.2 µM [falling, partial curve, poor fit]",
Cn1cc(Cl)c(C(=O)Nc2nc3ccccc3s2)n1,"1.64 µM [falling, partial curve]",
O=c1[nH]c2ccc(S(=O)(=O)N3CCN(c4ccc(F)cc4)CC3)cc2o1,"5.62 µM [rising, single point]",
Cc1ccc(Cl)cc1NC(=S)N(Cc1cccnc1)Cc1ccccc1Cl,"12.6 µM [falling, partial curve, poor fit]",
Cc1cccc(C)c1OCC(=O)NNC(=O)Nc1ccc(Cl)cc1,"14.6 µM [rising, partial curve, poor fit]",
COC(=O)c1cc(OC)c(OC)cc1NC(=O)c1ccc(OC)c(OC)c1,"0.58 µM [rising, full curve]",
C/C(=N\NC(N)=S)c1ccc(Cl)s1,"8.2 µM [rising, partial curve]","18.4 µM [falling, single point]"
CN(CC(=O)Nc1ccc(F)cc1)C(=O)COC(=O)C1CCN(c2ccc(C(F)(F)F)cn2)CC1,"29.1 µM [falling, single point]",
Cn1c(SCC(=O)Nc2cc(=O)n(C)c(=O)n2C)nnc1-c1cccs1,"10.3 µM [falling, partial curve, poor fit]",
Cc1ccc(-n2ncc3c(=O)n(-c4ccc(C)c(C)c4)c(C)nc32)cc1,"29.1 µM [rising, partial curve, poor fit]",
CCc1ccc(OCCSc2nc3ccccc3n2CCC(=O)O)cc1,"5.01 µM [falling, full curve]",
O=C(Nc1nccs1)c1ccc(-c2ccc(F)c(Cl)c2)o1,"7.94 µM [falling, partial curve, poor fit]",
CCOC(=O)c1cnc2c(c(C3CC3)nn2C)c1N1CCOCC1,"6.31 µM [rising, single point]",
CC(C)(C)c1nnc(NC(=O)C2c3ccccc3Oc3ccccc32)s1,"3.16 µM [falling, full curve]",
O=C(Nc1nccs1)c1csc2c1CCCC2,"4.61 µM [falling, full curve]","1.16 µM [rising, partial curve, poor fit]"
CCc1nc2ccc(C(=O)Nc3ccc4c(c3)OCO4)cc2nc1CC,"7.08 µM [falling, full curve, poor fit]",

Compound,AC50 [1],AC50 [2]
Fc1ccc(COc2ccc3ccccc3c2CNc2nn[nH]n2)cc1,"12.6 µM [rising, partial curve, poor fit]",
O=C(/C=C/c1ccco1)Nc1cccc(NC(=O)/C=C/c2ccco2)n1,"20.6 µM [falling, partial curve]",
Cc1ccc(S(=O)(=O)NCC(=O)OCC(=O)NC(=O)NC2CCCC2)cc1,"3.16 µM [rising, full curve, poor fit]",
Nc1nn(-c2ccccc2)c2ccc([N+](=O)[O-])cc12,"8.91 µM [falling, partial curve]",
CCCCCCn1c(=O)c(-c2ccccc2)c(O)c2ccccc21,"23.1 µM [falling, partial curve, poor fit]",
CN(C(=O)/C=C/c1ccc2c(c1)OCO2)c1ccccc1,"20 µM [falling, single point]",
CSc1ccccc1NC(=O)c1cc2c(=O)n3ccccc3nc2s1,"1.12 µM [falling, full curve]",
Cc1cnc(C(=O)OCC(=O)Nc2ccc(OCc3ccccc3)cc2)cn1,"2.59 µM [rising, full curve, poor fit]",
COc1cc2c(cc1OC)CN(C(=O)Cc1ccccc1)CC2,"14.1 µM [falling, partial curve, poor fit]",
Cc1cc(N/N=C/c2cccc(Br)c2)nc2ccccc12,"2.59 µM [rising, full curve]",
CN(c1ccccc1)S(=O)(=O)c1cccc(NC(=O)CCNC(=O)c2ccc(Cl)cc2)c1,"18.4 µM [falling, single point]",
C[C@]12c3[nH]c4ccc(Cl)cc4c3CCN1C(=O)[C@@H](CC(=O)NCc1cccc(C(F)(F)F)c1)C[C@@H]2C(=O)N1CCOCC1,"29.1 µM [falling, single point]",
C(=C\CSc1ncn[nH]1)/CSc1ncn[nH]1,"25.9 µM [rising, single point]",
COc1ccc2nc(N3C(=O)CC(Cc4cc(C)cc(C)c4)C3=O)sc2c1 (stereo unspecified),"35.5 µM [falling, single point]",
Nc1cccc2c1C(=O)N(C(=O)c1cccc(S(=O)(=O)N3CCCC3)c1)C2=O,"2.59 µM [falling, full curve]",
CNC(=S)N1N=C(c2ccc(Br)cc2)CC1c1ccc(Br)cc1 (stereo unspecified),"23.1 µM [rising, single point]",
Cc1cc(=O)n(Cc2ccccc2)c2c(C)cccc12,"0.316 µM [rising, full curve, poor fit]",
COc1ccc(-c2cc(C(=O)NC(C)c3ccccc3)c3cc(C(C)C)ccc3n2)cc1 (stereo unspecified),"4.47 µM [rising, partial curve, poor fit]",
CCOC(=O)c1c(N)n(CCOC(=O)c2cccs2)c2nc3ccccc3nc12,"22.4 µM [falling, single point]",
O=C(CN1C(=O)/C(=C/c2ccccc2)SC1=S)NC1C=CS(=O)(=O)C1 (stereo unspecified),"12.6 µM [falling, partial curve]",

# In a second layout: results already given.
Compound	AC50 [1]	AC50 [2]
O=C(Nc1nccs1)c1csc2c1CCCC2	4.61 µM [falling, full curve]	1.16 µM [rising, partial curve, poor fit]
CCc1nc2ccc(C(=O)Nc3ccc4c(c3)OCO4)cc2nc1CC	7.08 µM [falling, full curve, poor fit]	
Fc1ccc(COc2ccc3ccccc3c2CNc2nn[nH]n2)cc1	12.6 µM [rising, partial curve, poor fit]	
